From the supplement of paper PMC12067093, “Discovery and optimisation of a covalent ligand for TRIM25 and its application to targeted protein ubiquitination” (Chemical Science, 2025)
This is one part of the list.

Amino acid sequences for entries named in this document (tags omitted). A change or cut given only in a name is not applied to a line headed by its entry.
UniProt O75607: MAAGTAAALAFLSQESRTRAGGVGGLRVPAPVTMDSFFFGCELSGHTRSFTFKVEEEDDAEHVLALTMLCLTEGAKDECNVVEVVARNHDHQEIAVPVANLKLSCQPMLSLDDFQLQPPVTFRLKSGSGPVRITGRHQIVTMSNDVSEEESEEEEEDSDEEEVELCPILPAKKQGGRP
UniProt Q15738: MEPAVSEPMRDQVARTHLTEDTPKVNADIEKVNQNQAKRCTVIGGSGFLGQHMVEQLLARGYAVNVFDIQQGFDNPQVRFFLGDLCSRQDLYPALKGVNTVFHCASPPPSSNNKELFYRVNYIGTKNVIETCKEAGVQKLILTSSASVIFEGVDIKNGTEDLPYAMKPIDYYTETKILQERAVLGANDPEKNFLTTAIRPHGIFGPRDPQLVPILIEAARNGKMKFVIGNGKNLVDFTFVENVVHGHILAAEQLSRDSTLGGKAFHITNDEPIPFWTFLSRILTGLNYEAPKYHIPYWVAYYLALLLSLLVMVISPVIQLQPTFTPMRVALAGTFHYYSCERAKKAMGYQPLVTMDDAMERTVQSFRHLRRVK

Compound: CC1Cc2ccccc2N1C(=O)C1CCCN(C1)C(=O)CCl (mixture of isomers) [TRIM25 ligand 11 (diastereomer mixture)]
Test: probe-labelled cysteine peptide fold change vs DMSO (competition) (log2 fold change); higher = less target engagement (more negative = stronger competition)
Settings: THP-1, incubation time: 4 h
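Also: competitive chemoproteomic profiling in live THP-1 cells with an iodoacetamide desthiobiotin (IA-DTB) probe, comparing probe-labelled peptide intensities in compound-treated cells against DMSO-treated controls.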

Target	probe-labelled cysteine peptide fold change (10 µM)	probe-labelled cysteine peptide fold change (50 µM)
NPM3_O75607_105_LSCQPMLSLDDFQLQPPVTFR (UniProt O75607)	0.134	0.446
NOC4L_Q9BVI4_509_KGPEPVPLEFIPAQGLLGRPGELCAQHFTLS (UniProt Q9BVI4)	0.0196	-0.199
NSDHL_Q15738_340_VALAGTFHYYSCER (UniProt Q15738)	-0.11	0.0292
